{"source": "PubChem BioAssay AID1224828 (NIAID, 2016)", "aim": "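Find genes required for NF-kappaB p65 moving into the nucleus after LPS in mouse macrophages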 (primary screen)", "system": "mouse RAW264.7 G9 macrophage reporter cells (GFP-p65, Tnf promoter-mCherry)", "reagent": "siRNA pool against mouse genes, 100 nM", "time to read-out": "2 days siRNA transfection, then 40 min LPS before fixation", "challenge": "LPS (Salmonella minnesota R595) at 10 ng/ml", "read-out": "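Microscopy ratio of nuclear to perinuclear-ring GFP-p65 signal, scaled to the plate median; gene score is the average of two replicate robust z-scores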", "scale": "p65 translocation robust z-score: higher = more nuclear NF-kappaB p65 after LPS than the plate median; nuclear/cytoplasmic p65 ratio: higher = more nuclear NF-kappaB p65", "call rule": "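Called active when z exceeds 3.3 or falls under -1.56 (median of Tlr4 controls), giving activity score of at least 50; no calls for control wells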", "calls": "active = hit (p65 shift raised or lowered); inactive = no clear change", "note": "Here is a random part of about 17,000 deposited reagents. In the full data, 762 (4.5%) got an active call. 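Active calls include both raised and lowered p65 entry, mostly lowered; wells with fewer than 50 cells lack a z-score.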 Raw values vary from plate to plate and are shown uncorrected. Reagent sequences are not shown."}
{"Gene": "Rrm2", "nuclear/cytoplasmic p65 ratio, rep 1": 1.11, "nuclear/cytoplasmic p65 ratio, rep 2": 1.45, "low cell count flag": "fewer than 50 cells per well; well left out of scoring", "outcome": "inactive"}
{"Gene": "Rbm18", "p65 translocation robust z-score": 1.44, "nuclear/cytoplasmic p65 ratio, rep 1": 1.59, "nuclear/cytoplasmic p65 ratio, rep 2": 1.4, "low cell count flag": "enough cells to score", "outcome": "inactive"}
{"Gene": "Eny2", "p65 translocation robust z-score": -1.93, "nuclear/cytoplasmic p65 ratio, rep 1": 1.1, "nuclear/cytoplasmic p65 ratio, rep 2": 1.09, "low cell count flag": "enough cells to score", "outcome": "active"}
{"Gene": "Rgs14", "p65 translocation robust z-score": -1.79, "nuclear/cytoplasmic p65 ratio, rep 1": 1.26, "nuclear/cytoplasmic p65 ratio, rep 2": 1.26, "low cell count flag": "enough cells to score", "outcome": "active"}
{"Gene": "Ccdc74a", "p65 translocation robust z-score": -0.35, "nuclear/cytoplasmic p65 ratio, rep 1": 1.53, "nuclear/cytoplasmic p65 ratio, rep 2": 1.59, "low cell count flag": "enough cells to score", "outcome": "inactive"}
{"Gene": "Gmpr", "p65 translocation robust z-score": 0.2, "nuclear/cytoplasmic p65 ratio, rep 1": 1.41, "nuclear/cytoplasmic p65 ratio, rep 2": 1.45, "low cell count flag": "enough cells to score", "outcome": "inactive"}
{"Gene": "Rlf", "p65 translocation robust z-score": -0.06, "nuclear/cytoplasmic p65 ratio, rep 1": 1.6, "nuclear/cytoplasmic p65 ratio, rep 2": 1.61, "low cell count flag": "enough cells to score", "outcome": "inactive"}
{"Gene": "Gtf2ird2", "p65 translocation robust z-score": -0.54, "nuclear/cytoplasmic p65 ratio, rep 1": 1.55, "nuclear/cytoplasmic p65 ratio, rep 2": 1.51, "low cell count flag": "enough cells to score", "outcome": "inactive"}
{"Gene": "Hhatl", "p65 translocation robust z-score": -0.16, "nuclear/cytoplasmic p65 ratio, rep 1": 1.5, "nuclear/cytoplasmic p65 ratio, rep 2": 1.44, "low cell count flag": "enough cells to score", "outcome": "inactive"}
{"Gene": "Mup5", "p65 translocation robust z-score": 0.29, "nuclear/cytoplasmic p65 ratio, rep 1": 1.86, "nuclear/cytoplasmic p65 ratio, rep 2": 1.61, "low cell count flag": "enough cells to score", "outcome": "inactive"}
{"Gene": "Ephx1", "p65 translocation robust z-score": -0.85, "nuclear/cytoplasmic p65 ratio, rep 1": 1.42, "nuclear/cytoplasmic p65 ratio, rep 2": 1.25, "low cell count flag": "enough cells to score", "outcome": "inactive"}
{"Gene": "Poldip2", "nuclear/cytoplasmic p65 ratio, rep 1": 1.29, "nuclear/cytoplasmic p65 ratio, rep 2": 1.18, "low cell count flag": "fewer than 50 cells per well; well left out of scoring", "outcome": "inactive"}
{"Gene": "Smc3", "p65 translocation robust z-score": -1.29, "nuclear/cytoplasmic p65 ratio, rep 1": 1.4, "nuclear/cytoplasmic p65 ratio, rep 2": 1.56, "low cell count flag": "enough cells to score", "outcome": "inactive"}
{"Gene": "Abraxas2", "p65 translocation robust z-score": 0.59, "nuclear/cytoplasmic p65 ratio, rep 1": 1.56, "nuclear/cytoplasmic p65 ratio, rep 2": 1.56, "low cell count flag": "enough cells to score", "outcome": "inactive"}
{"Gene": "Mamdc2", "p65 translocation robust z-score": 0.43, "nuclear/cytoplasmic p65 ratio, rep 1": 1.8, "nuclear/cytoplasmic p65 ratio, rep 2": 1.59, "low cell count flag": "enough cells to score", "outcome": "inactive"}
{"Gene": "Ranbp10", "p65 translocation robust z-score": 2.76, "nuclear/cytoplasmic p65 ratio, rep 1": 1.53, "nuclear/cytoplasmic p65 ratio, rep 2": 1.65, "low cell count flag": "enough cells to score", "outcome": "inactive"}
{"Gene": "Nme5", "p65 translocation robust z-score": -0.35, "nuclear/cytoplasmic p65 ratio, rep 1": 1.67, "nuclear/cytoplasmic p65 ratio, rep 2": 1.33, "low cell count flag": "enough cells to score", "outcome": "inactive"}
{"Gene": "Zbtb48", "p65 translocation robust z-score": 0.73, "nuclear/cytoplasmic p65 ratio, rep 1": 1.75, "nuclear/cytoplasmic p65 ratio, rep 2": 1.66, "low cell count flag": "enough cells to score", "outcome": "inactive"}

Looked up above.
Result for Ephx1 under “outcome”: inactive
Rrm2, nuclear/cytoplasmic p65 ratio, rep 2: 1.45

More results follow:
{"Gene": "Tbk1", "p65 translocation robust z-score": -0.8, "nuclear/cytoplasmic p65 ratio, rep 1": 1.58, "nuclear/cytoplasmic p65 ratio, rep 2": 1.28, "low cell count flag": "enough cells to score", "outcome": "inactive"}
{"Gene": "1600012H06Rik", "nuclear/cytoplasmic p65 ratio, rep 1": 1.12, "nuclear/cytoplasmic p65 ratio, rep 2": 1.18, "low cell count flag": "fewer than 50 cells per well; well left out of scoring", "outcome": "inactive"}
{"Gene": "4931422A03Rik", "nuclear/cytoplasmic p65 ratio, rep 1": 1.25, "nuclear/cytoplasmic p65 ratio, rep 2": 1.45, "low cell count flag": "fewer than 50 cells per well; well left out of scoring", "outcome": "inactive"}
{"Gene": "Depdc1b", "p65 translocation robust z-score": -1.08, "nuclear/cytoplasmic p65 ratio, rep 1": 1.37, "nuclear/cytoplasmic p65 ratio, rep 2": 1.43, "low cell count flag": "enough cells to score", "outcome": "inactive"}
{"Gene": "Stra8", "p65 translocation robust z-score": -1.78, "nuclear/cytoplasmic p65 ratio, rep 1": 1.12, "nuclear/cytoplasmic p65 ratio, rep 2": 1.03, "low cell count flag": "enough cells to score", "outcome": "active"}
{"Gene": "Ca5b", "p65 translocation robust z-score": -1.11, "nuclear/cytoplasmic p65 ratio, rep 1": 1.35, "nuclear/cytoplasmic p65 ratio, rep 2": 1.68, "low cell count flag": "enough cells to score", "outcome": "inactive"}
{"Gene": "Ddx42", "p65 translocation robust z-score": 0.09, "nuclear/cytoplasmic p65 ratio, rep 1": 1.63, "nuclear/cytoplasmic p65 ratio, rep 2": 1.52, "low cell count flag": "enough cells to score", "outcome": "inactive"}
{"Gene": "Lce1g", "p65 translocation robust z-score": -1.05, "nuclear/cytoplasmic p65 ratio, rep 1": 1.35, "nuclear/cytoplasmic p65 ratio, rep 2": 1.2, "low cell count flag": "enough cells to score", "outcome": "inactive"}
{"Gene": "Fxyd1", "p65 translocation robust z-score": 0.08, "nuclear/cytoplasmic p65 ratio, rep 1": 1.44, "nuclear/cytoplasmic p65 ratio, rep 2": 1.39, "low cell count flag": "enough cells to score", "outcome": "inactive"}
